# Library screen at single concentrations

Protein sequences, listed by entry. Tags and fused reporters are not part of them. Residues count along the entry.
UniProt A4I591, 1-473: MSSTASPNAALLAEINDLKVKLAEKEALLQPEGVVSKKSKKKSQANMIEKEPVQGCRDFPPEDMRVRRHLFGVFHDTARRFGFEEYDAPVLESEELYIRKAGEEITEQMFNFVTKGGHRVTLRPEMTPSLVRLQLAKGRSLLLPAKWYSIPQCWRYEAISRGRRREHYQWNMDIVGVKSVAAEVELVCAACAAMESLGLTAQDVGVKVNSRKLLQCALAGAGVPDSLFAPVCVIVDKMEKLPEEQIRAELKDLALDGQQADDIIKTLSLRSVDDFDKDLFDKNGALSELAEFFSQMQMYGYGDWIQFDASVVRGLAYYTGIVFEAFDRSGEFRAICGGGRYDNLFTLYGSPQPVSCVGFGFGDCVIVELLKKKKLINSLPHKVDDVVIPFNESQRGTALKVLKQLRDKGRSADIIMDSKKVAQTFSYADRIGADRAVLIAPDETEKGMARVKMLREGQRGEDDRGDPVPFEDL
UniProt P9WFT3, whole entry: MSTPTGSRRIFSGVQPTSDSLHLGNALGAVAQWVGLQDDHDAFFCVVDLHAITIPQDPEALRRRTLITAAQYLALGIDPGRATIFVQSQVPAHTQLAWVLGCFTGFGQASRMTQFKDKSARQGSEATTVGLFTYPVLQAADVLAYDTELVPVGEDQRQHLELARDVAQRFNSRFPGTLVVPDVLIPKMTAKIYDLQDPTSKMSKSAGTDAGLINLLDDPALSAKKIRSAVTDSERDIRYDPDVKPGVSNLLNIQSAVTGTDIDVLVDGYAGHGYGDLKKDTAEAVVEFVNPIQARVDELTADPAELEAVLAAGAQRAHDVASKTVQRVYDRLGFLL
UniProt P9WNZ1, whole entry: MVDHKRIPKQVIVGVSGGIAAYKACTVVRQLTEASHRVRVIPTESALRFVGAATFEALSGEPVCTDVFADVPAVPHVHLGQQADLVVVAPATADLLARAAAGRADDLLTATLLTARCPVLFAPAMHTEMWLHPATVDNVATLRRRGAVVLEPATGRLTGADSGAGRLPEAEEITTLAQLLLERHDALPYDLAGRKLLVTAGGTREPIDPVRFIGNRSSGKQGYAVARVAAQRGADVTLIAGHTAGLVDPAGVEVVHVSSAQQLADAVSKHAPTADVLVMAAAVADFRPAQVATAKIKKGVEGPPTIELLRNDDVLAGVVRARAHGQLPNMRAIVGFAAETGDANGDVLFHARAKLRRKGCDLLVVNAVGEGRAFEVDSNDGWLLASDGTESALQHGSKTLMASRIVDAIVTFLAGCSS

A: 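Enzyme assay of histidyl-tRNA synthetase; the read-out is not stated. Target: Histidine-tRNA ligase, Leishmania infantum (UniProt A4I591). Concentration: 30 µM. The record gives no direction; compounds that gave an IC50 in retests scored well above the rest, so higher reads as stronger inhibition. The assay is labelled LdHisRS but filed under L. infantum. About 69,000 compounds were tested under these conditions; 0.6% (about 410) showed 50% or more at least once.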
B: 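Tryptophan-tRNA ligase, Mycobacterium tuberculosis (UniProt P9WFT3). Enzyme assay of tryptophanyl-tRNA synthetase; the read-out is not stated. Compounds at 10 µM. Direction is not recorded; retested compounds ran higher, which suggests that high means inhibition. About 65,000 compounds were tested under these conditions; 0.098% (about 64) showed 50% or more at least once.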
C: 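Assay of Toxoplasma gondii numbers, read through their beta-galactosidase reporter with a colour substrate. Concentration: 10 µM. Higher reads as fewer parasites (inferred from which compounds were picked for retests). About 67,000 compounds were tested under these conditions; 0.38% (about 260) showed 50% or more at least once.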
D: 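Coenzyme A biosynthesis protein CoaBC, Mycobacterium tuberculosis (UniProt P9WNZ1). Enzyme assay of CoaBC with a phosphate dye (Biomol Green) read at 650 nm. Concentration: 30 µM. Higher reads as stronger inhibition, judged from the few compounds that gave an IC50. Most strong results did not repeat in a second test. Size under these conditions: about 67,000 compounds, about 40 of them at 50% or above in at least one test.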

Values are the deposited “Percent Effect”, in %. The record does not define 0% and 100%; most values in the screen are far below 50% and negative numbers occur (in some assays of this library far below -100). The compounds are a random part of those screened. A dash means the value is not listed here; it may have been measured.

Compound,A,B,C,D
NC(=O)C1CCN(Cc2cc3c(cc2Br)OCCO3)C1 (configuration not stated),12.33%,-3.086%,-3.287%,-4.808%
Cc1nc(CN2CCN(Cc3ccoc3)Cc3cccnc32)cs1.O=C(O)C(F)(F)F.O=C(O)C(F)(F)F.O=C(O)C(F)(F)F,-,-,-12.01%,-
CCCN1CCC2(C1)c1ccccc1S(=O)(=O)N2C (configuration not stated),6%,-1.281%,-,-0.2049%
CC(C)c1noc(CN2CCN(C(=O)c3ccncc3F)CC2)n1,8.929%,-8.687%,-4.301%,6.579%
Cc1cccc2c1ccn2CCC(=O)Nc1c2c(nn1C)CSC2,7.692%,2.002%,1.318%,5.425%
Cc1cc(NC(=O)NCC2CCN(C(C)C)C2)no1 (configuration not stated),15.52%,-4.112%,2.408%,-2.35%
Cc1cc(NCCO)nc(N2CCCC2)c1C#N,-1.695%,-3.864%,1.046%,-0.6274%
CC1CN(Cc2noc(C3CC3)n2)CCN1Cc1nccn1C (configuration not stated),-12.36%,1.18%,-,4.37%
Cc1ccc(C(=O)N2CCn3cc(CN(C)Cc4ccco4)nc3C2)o1,-0.9709%,-5.843%,-,3.676%
COc1cc(OC)cc(C(=O)N(C)Cc2nnc3ccccn23)c1,11.5%,-1.881%,15.56%,4.178%
Cc1nc(CN2CCC3(CC2)NC(=O)CC3c2ccncc2)cs1.O=C(O)C(F)(F)F.O=C(O)C(F)(F)F (configuration not stated),-,-,2.296%,-
O=C1CN(Cc2cn(C3CCN(C4CSCCSC4)CC3)nn2)CCN1,35.56%,-1.089%,-31.31%,17.03%
COCC1N(C(=O)c2ccco2)[C@H]2CC[C@]1(O)CC2 (some centres not stated),4.082%,-,-,1.453%
COc1c(CNC(c2ccccc2)c2ccc(F)cc2)c(C)nn1C (configuration not stated),-1.786%,10.23%,27.23%,4.689%
Cc1nc(C)n(CCC(=O)NCC2CCCOC2)n1 (configuration not stated),6.993%,0.1958%,-4.316%,-22.03%
[H][C@@]12OCCN(C(=O)c3ccnnc3)[C@@]1([H])CC[C@@H]2OCc1cccnc1,-,-,8.113%,-
[H][C@@]12CNC[C@@]1([H])N(CC1CC1)C(=O)CO2,-,-,9.132%,-
O=C1CC(NS(=O)(=O)c2ccc(F)c(Cl)c2)CN1 (configuration not stated),13.48%,-0.4402%,6.121%,-2.046%
O=c1c(S(=O)(=O)N2CCCC2)cccn1Cc1ccc(F)cc1Cl,23.66%,2.917%,8.088%,10.66%
Cc1nc(COCc2cnc3n2CCN(CC2CCC2)C3C)cs1.O=C(O)C(F)(F)F (configuration not stated),-,-,-0.1068%,-
CCO[C@H]1CN(C)C[C@@H]1NC(=O)c1cc(C)nc2c(C)cccc12,6.557%,2.576%,-43.53%,8.009%
CCN(CC)C(=O)CSc1nc2cc(C)nc-2c(O)n1Cc1ccco1,13.58%,2.037%,-11.72%,0%
CN(Cc1ccc2c(c1)OCCO2)c1ncc(S(N)(=O)=O)s1,15.69%,-3.701%,2.117%,1.84%
Cn1cc(CN(Cc2cccc(-n3cccn3)c2)C2CC2)cn1,18.07%,5.438%,-27.65%,4.684%
O=C(c1ccccc1C(F)(F)F)N1C[C@@H](CN2CCOCC2)[C@@H](CO)C1,13.6%,0.6522%,4.947%,3.739%
Oc1cc(CCC2CCCCN2)cc(-c2cccnc2)c1 (configuration not stated),13.98%,5.734%,-3.401%,-0.2058%
Cc1cc(C)cc(C(=O)Nc2ccc(CC3CC(=O)NC3=O)cc2)c1 (configuration not stated),17.74%,0.3915%,6.32%,-5.379%
Cc1ccccc1OCCSc1nnc(CC2CCS(=O)(=O)C2)n1C (configuration not stated),16.39%,-1.495%,8.986%,3.433%
CC(C)CN1CCN(C(=O)c2ccncc2F)Cc2cccnc21,25.64%,3.734%,-,5.013%
CCOc1cncc(N2CCN(c3ccccc3O)CC2)n1,9.91%,1.33%,-0.1136%,-9.728%
COCCN1CCC2(CCCN(c3ncccn3)C2)C1.O=C(O)C(F)(F)F (configuration not stated),-,-,2.385%,-
COCC(=O)N1CCC2(CC(C(=O)NCc3cccnc3)=NO2)C1 (configuration not stated),11.43%,-0.8137%,0.6761%,7.492%
O=C(NC[C@H]1CCCC[C@H]1O)c1cccc2[nH]c(-c3ccco3)nc12,29.7%,-,2.232%,0.9709%
O[C@@H]1CN(c2nc3ccccc3o2)CC[C@H]1c1ccc2c(c1)OCO2,2.041%,-0.8811%,30.32%,1.157%
Cc1cccc(NC(=O)c2cccc(OCc3nnnn3C)c2)n1,0%,0.432%,27.08%,1.942%
O=C(NCC1CCOC1)c1cc(-c2cccc(Cl)c2)on1 (configuration not stated),16.44%,-3.437%,2.435%,-0.9639%
CNC(=O)C1(CCCc2ccccn2)CN(Cc2coc(C)n2)C1,8.511%,-10.42%,-3.239%,-5.031%
O=C(Nc1nccs1)N(CCO)Cc1ccsc1,5.6%,-2.516%,-4.658%,-1.596%
O=c1cc(Cn2cncn2)nc2n1CCCN(CCN1CCCC1)C2,7.965%,-3.266%,-,9.13%
O=C(O)[C@@H]1CN(C2CCCC2)C[C@H]1C1CC1,-1.754%,-6.416%,3.775%,2.397%
CCCN1CCC(Nc2cc(-c3ccccc3)ccc2OC)CC1,-4%,-3.979%,16.07%,-26.45%
Cc1nc2cc(=O)[nH]n2c(C)c1CC(=O)NCc1ccc(C#N)cc1,18.35%,-0.104%,-6.225%,2.813%

The last 3 entries again:

Compound,A,B,C,D
O=C(O)[C@@H]1CN(C2CCCC2)C[C@H]1C1CC1,-1.754%,-6.416%,3.775%,2.397%
CCCN1CCC(Nc2cc(-c3ccccc3)ccc2OC)CC1,-4%,-3.979%,16.07%,-26.45%
Cc1nc2cc(=O)[nH]n2c(C)c1CC(=O)NCc1ccc(C#N)cc1,18.35%,-0.104%,-6.225%,2.813%

The values are deposited in ChEMBL (CHEMBL3988442, “University of Dundee, Small-Polar-MMV Screening Library” (2021)).